Library screening results

Each number is a percent effect as filed.
The record does not define 0% and 100%; most values in the screen are far below 50% and negative numbers occur (in some assays of this library far below -100).
The compounds are a random part of those screened.
Two or more numbers in one place are separate tests of the same structure; such repeats can differ widely.

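Viability assay of Plasmodium falciparum sporozoites; the read-out is not stated. The concentration is filed as 10 mM, unlikely as a test dose, so the dose is not known. The record gives no direction; compounds that gave an IC50 in retests scored well above the rest, so higher reads as lower viability. Strong results were mostly tested again. Of about 34,000 compounds tested this way, about 280 (0.84%) reached 50% or more in at least one test.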

structure | percent effect
NCc1cnn(-c2ccccc2C(=O)NCCCn2ccnc2)c1 | -6.991
O=c1nc(CNc2ccccc2)[nH]n1Cc1ccccc1 | -9.132
CCn1nc(C)cc1C(=O)OCCNC(=O)c1ccccc1 | -3.418
CN1CC(=O)N(c2ccsc2)CC12CCN(C(=O)c1cccn1C)C2.O=C(O)C(F)(F)F (stereo not given) | -1.546
CN(C)C(CNC(=O)NCCc1cccc(O)c1)c1ccco1 (stereo not given) | 4.152
Cc1ccc(N2CCCC(NCc3nnc4n3CCCC4)C2=O)cc1 (stereo not given) | 16.59
O=C(O)C(F)(F)F.O=C(O)C(F)(F)F.[H][C@@]12COC[C@@H](C(=O)NCc3ccccn3)[C@]1([H])CN(C1CCC1)C2 | 10.4
O=C1C(NCc2nnc3n2CCCC3)CCN1c1ccccc1F (stereo not given) | 11.03
OC(COCc1ccccc1Cl)CN1CC(n2cccn2)C1 (stereo not given) | 8.574
Cc1cccc(CN2CCC3(CCN(c4ncccn4)CC3)C2=O)c1.O=C(O)C(F)(F)F | -0.7881
CSCCC(=O)N1CCCCC1CCn1cccn1 (stereo not given) | -9.428 & -15.9
Cc1ncc(C(=O)N2CCCC2(C)C(=O)N2CCOCC2)c(C)n1 (stereo not given) | 0.5166
Cc1[nH]ncc1C(=O)N1CCCC1c1noc(C2CC2)n1 (stereo not given) | 9.787 & 5.037 & 4.849
CN(C)CC1(O)CCN(C(=O)Cc2ccc3c(c2)CCC3)C1 (stereo not given) | 14.33
Cc1cnn(CC2CN(Cc3nc4ccccc4nc3C)CCO2)c1 (stereo not given) | -7.63
CN(C(=O)NCc1ccsc1)C1CCN(c2ccccc2)C1=O (stereo not given) | 4.31
[H][C@@]12CS(=O)(=O)C[C@]1([H])N(C(=O)c1ccc3ccccc3n1)CCN2CCC | 24.59
CCC(=O)N1CCC(c2cncc(Oc3cccnc3)n2)CC1 | 0.06662
CCS(=O)(=O)N1C[C@@H](C(=O)NC(C)C)[C@@]2(Cc3ccccc3C(=O)N2)C1 | 12.98
CCN(C)C(=O)c1coc(COc2ccccc2)n1 | -20.17
CCCC1(CNCc2ncc[nH]2)CCC1 | 5.895
Cc1oc(C(=O)O)cc1S(=O)(=O)Nc1cc(Cl)ccc1F | -4.906
O=C(O)C(F)(F)F.[H][C@]12CN(Cc3ccoc3)C[C@@]1([H])OCCN(c1ncccn1)C2 | -2.483
COc1ccc2c(c1)C(=O)NC1(CC2)CCN(Cc2cccnc2)C1 (stereo not given) | -8.842
O=C(c1ccsc1)N1CCC(c2nnc(C3CC3)o2)CC1 | 24.44
Cc1nc2sccn2c1CN(CCCN(C)C)Cc1ccco1.O=C(O)CC(O)(CC(=O)O)C(=O)O | -8.043
Cn1ccnc1C(=O)N1CCC2(CC1)CC(Oc1cccnc1)CO2.O=C(O)C(F)(F)F (stereo not given) | -15.47
Cc1cnn(CC2CCCN2C(=O)c2sccc2-n2cnnn2)c1 (stereo not given) | 6.62
CCc1nccn1C1CCCN(C(=O)c2ccc(-n3ccnc3)cc2)C1 (stereo not given) | 8.133
Cc1nc(C)n(CC2CCCN(CCC(=O)NC3CCCCC3)C2)n1 (stereo not given) | 1.531
Cc1cccnc1C(=O)N1CCCCC1c1[nH]ncc1S(C)(=O)=O (stereo not given) | -24.5
CCCn1nc(-c2nc(C3CC3)no2)ccc1=O | 15.77
Cc1nc(C)n(CC2CCCN(Cc3cccc4c3OCCO4)C2)n1 (stereo not given) | 7.989
[H][C@@]12COC[C@]1([H])[C@@H](OCCN(C)C)CN2C(=O)c1cscn1 | -12.9
OCC1CCCN1c1cc(NCc2ccc(Cl)s2)ncn1 (stereo not given) | -18.14
CCN(CC)c1ccc(CNC(=O)N2CCC(C#N)CC2)cc1 | -8.333
CC1CN(C)CCN1C(=O)c1cnn(-c2cccc(Cl)c2)c1 (stereo not given) | 3.188
O=C(O)C(F)(F)F.O=C(O)C(F)(F)F.[H][C@@]12CCCO[C@]1([H])[C@@H](OCCN(C)C)CN2CC1CC1 | -7.932
CC(=O)NCCNC(=O)CN1CCCCC1Cn1cncn1 (stereo not given) | 3.516
CC(=O)NC1CCCN(C(=O)NCc2cccnc2)C1 (stereo not given) | 8.061
CC(C)c1nc(C2CCCN2C(=O)c2nccnc2N)no1 (stereo not given) | 2.924
CC(Nc1ccc(C(F)(F)F)cc1C#N)c1cccc(S(N)(=O)=O)c1 (stereo not given) | -0.9804
O=C(O)C(F)(F)F.O=C(O)C(F)(F)F.O=C(O)C(F)(F)F.c1ccc(CN2CC[C@]3(C[C@@H](Oc4ccccn4)CO3)C2)nc1 | 3.114
Cc1cc(C)c(C)c(OCCCNC(=O)NC(C)c2nncn2C)c1 (stereo not given) | 1.338
O=C(O)C(c1ccc(Cl)c(F)c1)N1CCN(Cc2ccccn2)CC1 (stereo not given) | 0.9923
c1ccc(-n2ccc(CN3CCCCC3Cn3cncn3)n2)cc1 (stereo not given) | 15.1 & 44.77 & 11.85
Cc1nc(C)n(CC2CN(CCOCC(F)(F)F)CCO2)n1 (stereo not given) | -15.69
COc1c(CNC2CCC(O)CC2)c(C(C)C)nn1C (stereo not given) | -0.1036
CN(C)CC(=O)N1CCC2(CC1)Cc1ccccc1CN(C)C2=O.O=C(O)C(F)(F)F | -4.195
Cc1ccn(-c2cccc(C(=O)N3CCCC(n4ccnc4C)C3)c2)n1 (stereo not given) | 9.244
CC/C=C(/C)C(=O)NCc1ccc(OC)nc1 | -16.8
O=C(NCCCNc1ccccc1)c1scnc1Cl | -11.52
CC(=O)N1CCCC1c1ccnc(Nc2cncnc2)n1 (stereo not given) | -1.251
CN(C)c1ccc(C(=O)N2CCN(Cc3cscn3)CC2)cn1 | 0.8778
Cc1cnn(-c2cncc(C(N)=O)c2)c1 | 7.318 & 5.662
O=C(O)C(F)(F)F.[H][C@@]12OCCN(CCOCc3ccccc3)[C@@]1([H])CC[C@H]2OCC | 2.981
Cc1nc(C(C)(C)NC(=O)Nc2cccc(C#N)c2)no1 | 0.8264
CC(=O)N1CCCC(Cc2cnc(C(=O)N3CCC(C)CC3)cn2)C1 (stereo not given) | 5.327
Cn1cc(N2CCC3(CCN(S(=O)(=O)C4CC4)C3)C2=O)cn1 (stereo not given) | -15.91
CC/N=c1\nc(NCC)nc2n1C(O)(Nc1ccc(C)cc1C)CS2 (stereo not given) | 76.89 & 79.52
Cc1ccc(NC2CCN(C(=O)c3cncnc3C)CC2)nn1 | 9.337
O=C(O)C(F)(F)F.O=C(O)C(F)(F)F.O=C1CC2(CCN(Cc3cccnc3)C2)CN1c1cncnc1 (stereo not given) | 8.42
Cc1nc2ccc(C(=O)N3C[C@@H](O)[C@H](N4CCCC4)C3)cc2[nH]1 | 8.021
Clc1snnc1CN1CCCC1Cn1cccn1 (stereo not given) | -3.385
CC(=O)N1CC2(CCN(C(=O)c3ccc4c(c3)OCCO4)CC2)C1 | 5.646
Cc1cc(C)n(CC2CN(Cc3noc(C)n3)CCO2)n1 (stereo not given) | 15.06
Cn1c(CC2CCS(=O)(=O)C2)nnc1SCCOc1cccc(Cl)c1 (stereo not given) | -5.306
COCC(=O)N1CC[C@@H](N2CCOCC2)[C@@H]1Cc1cccnc1 | -14.6
Cc1nccc(CNc2cc(N3CCCC3CO)ncn2)n1 (stereo not given) | -4.186
CN(C(=O)Cc1ccc2c(c1)OCCO2)C1CCCC1 | 10.71
CCNC(=O)[C@@H]1C[C@H](NC(=O)Cc2ccsc2)CN1Cc1ccc(C)o1 | 2.599
[H][C@@]12CN(C(=O)c3cccnc3)C[C@]1([H])OCCN2CCN1CCCC1 | 6.615
Cc1noc(C)c1C(=O)N1CCC2(CC(N(C)c3ccncn3)C2)C1 (stereo not given) | 13.72
O=C(NCC1CCOC1)c1csc(-c2ccccc2)n1 (stereo not given) | -2.602
CCCc1nc(CN2CCc3c(ncn3C3CC3)C2)cs1 | 12.96 & 4.944 & 22.98
CNC(=O)COC1COC2(CCN(c3ccc(C#N)cc3)CC2)C1.O=C(O)C(F)(F)F (stereo not given) | -10.77
CCc1nncn1CCNC(=O)N1CCN(Cc2ccccc2)CC1 | 1.463
N#Cc1ccc(OC2CCN(C(=O)COCC3CCCO3)CC2)cc1 (stereo not given) | -21.86
CCn1c(C2CCN(C(=O)c3cc(C4CC4)on3)CC2)nn(C)c1=O | -2.786 & -6.181
NC(=O)Cn1cc(NC(=O)NCC2CCN(c3ccccc3)C2)cn1 (stereo not given) | -12.06 & -8.002
Cc1ccc(NC2CCN(C(=O)COc3ccccc3)CC2)nn1 | 11.96
CCn1c(C)nnc1CN(C)C1CCN(CCS(=O)(=O)CC)C1 (stereo not given) | 7.653
CCOC(=O)C1(Cc2ccccc2-c2ccccc2OC)CCNCC1.Cl | 1.374

Once more, the final 10:

structure	percent effect
O=C(NCC1CCOC1)c1csc(-c2ccccc2)n1 (stereo not given)	-2.602
CCCc1nc(CN2CCc3c(ncn3C3CC3)C2)cs1	12.96 & 4.944 & 22.98
CNC(=O)COC1COC2(CCN(c3ccc(C#N)cc3)CC2)C1.O=C(O)C(F)(F)F (stereo not given)	-10.77
CCc1nncn1CCNC(=O)N1CCN(Cc2ccccc2)CC1	1.463
N#Cc1ccc(OC2CCN(C(=O)COCC3CCCO3)CC2)cc1 (stereo not given)	-21.86
CCn1c(C2CCN(C(=O)c3cc(C4CC4)on3)CC2)nn(C)c1=O	-2.786 & -6.181
NC(=O)Cn1cc(NC(=O)NCC2CCN(c3ccccc3)C2)cn1 (stereo not given)	-12.06 & -8.002
Cc1ccc(NC2CCN(C(=O)COc3ccccc3)CC2)nn1	11.96
CCn1c(C)nnc1CN(C)C1CCN(CCS(=O)(=O)CC)C1 (stereo not given)	7.653
CCOC(=O)C1(Cc2ccccc2-c2ccccc2OC)CCNCC1.Cl	1.374

The values are deposited in ChEMBL (CHEMBL3988442, “University of Dundee, Small-Polar-MMV Screening Library” (2021)).